# Assay results from paper PMC8563757, “NudCL2 is an autophagy receptor that mediates selective autophagic degradation of CP110 at mother centrioles to promote ciliogenesis” (Cell Research, 2021).
# Results are given in words; binding and its absence hold for the method and conditions named. Binding seen in cells or lysates may run through a third protein. A yes stands for co-enrichment or nearness to the bait. Other partners may have been found.
# T1: Centriolar coiled-coil protein 110 (CP110), endogenous, MEF cells (mouse (endogenous in MEF)) (UniProt Q7TSH4)
# T1 sequence: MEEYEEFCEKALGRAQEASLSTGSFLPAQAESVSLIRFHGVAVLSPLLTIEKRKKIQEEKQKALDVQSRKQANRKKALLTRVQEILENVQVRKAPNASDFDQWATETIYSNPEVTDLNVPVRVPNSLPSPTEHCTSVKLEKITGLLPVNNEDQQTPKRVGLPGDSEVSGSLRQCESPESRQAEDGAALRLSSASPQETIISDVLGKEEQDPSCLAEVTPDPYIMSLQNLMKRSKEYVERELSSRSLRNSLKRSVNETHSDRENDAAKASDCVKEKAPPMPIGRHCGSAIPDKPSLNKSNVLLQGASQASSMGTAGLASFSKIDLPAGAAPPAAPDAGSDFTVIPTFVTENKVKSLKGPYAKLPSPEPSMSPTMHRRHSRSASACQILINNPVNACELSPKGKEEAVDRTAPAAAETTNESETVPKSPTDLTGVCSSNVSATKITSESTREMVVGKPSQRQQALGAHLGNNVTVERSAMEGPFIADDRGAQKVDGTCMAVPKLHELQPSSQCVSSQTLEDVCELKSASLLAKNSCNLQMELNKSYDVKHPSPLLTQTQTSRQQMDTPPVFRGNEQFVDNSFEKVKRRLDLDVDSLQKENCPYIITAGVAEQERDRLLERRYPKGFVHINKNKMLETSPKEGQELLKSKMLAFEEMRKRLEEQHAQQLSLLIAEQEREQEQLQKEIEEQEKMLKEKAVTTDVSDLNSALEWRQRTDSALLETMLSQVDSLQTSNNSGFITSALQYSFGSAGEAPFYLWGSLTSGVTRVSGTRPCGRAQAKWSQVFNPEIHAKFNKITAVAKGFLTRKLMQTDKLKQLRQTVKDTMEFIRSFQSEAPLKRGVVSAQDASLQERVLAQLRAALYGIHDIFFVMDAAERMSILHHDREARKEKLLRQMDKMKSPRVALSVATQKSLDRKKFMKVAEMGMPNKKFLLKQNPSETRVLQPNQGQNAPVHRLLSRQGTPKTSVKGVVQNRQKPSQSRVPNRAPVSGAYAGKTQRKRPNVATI
# Biological target: T1, Centriolar coiled-coil protein 110 (CP110), endogenous, MEF cells (mouse (endogenous in MEF))
# Assay: affinity purification with mass spectrometry; proteins co-immunoprecipitated with anti-CP110 or anti-LC3 antibodies in MEF cells, trypsin digestion, LC-MS/MS
binder,measurement,value
"GST-NudCL2 (natural protein, mouse, UniProt Q9CQ48 1-157, looked up, Full-length mouse NudCL2 amplified from total cDNA by RT-PCR and cloned into pGEX5X-1; also called purified GST-NudCL2; source: Escherichia coli BL21, purified) MSAPFEERSGVVPCGTPWGQWYQTLEEVFIEVQVPPGTRAQDIQCGLQSRHVALAVGGREILKGKLFDSTIADEGTWTLEDRKMVRIVLTKTKRDAANCWTSLLESEYAADPWVQDQMQRKLTLERFQKENPGFDFSGAEISGNYTKGGPDFSNLEK",binding,binds
